PubChem BioAssay AID1259254 | NCATS, 2017
Purpose: 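Genome-wide screen for genes that prevent DNA re-replication in cancer cells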 (primary screen). System: human HCT116 colorectal cancer cells. Reagents: single siRNA against human genes. Time to read-out: 3 days. Read-out: 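Nuclei stained with Hoechst and imaged; cell-cycle phase assigned by DNA content; G2 share scaled per plate, non-targeting siRNA 0%, GMNN siRNA 100%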. Reading the numbers: G2 robust z-score and G2 cells, % of GMNN control: higher = more G2 cells, more excess DNA replication; raw share of cells in G2: higher = larger share of cells with G2 DNA content. Active means: 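An siRNA counts as active if its G2 robust z-score lies at least 5 MADs above the screen median; here such calls match roughly 38% of GMNN control or more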.
In all, the deposit lists about 59,000 reagents; this is an unselected part. About 1,550 of all reagents (2.6%) were called active. 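G2 share is only a proxy for re-replication; each gene was hit by three separate siRNAs, and active genes were retested.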 Raw values are not corrected between plates. A number with no mark means an inactive call. The numbers tell different reagents against one gene apart. The record does not give: the amount of reagent.

Gene,reagent,G2 robust z-score,"G2 cells, % of GMNN control",raw share of cells in G2 (%)
RTP2 (GeneID 344892),1,-0.318,0.73,4.24
RTP2 (GeneID 344892),2,-0.579,-1.1,2.78
RTP2 (GeneID 344892),3,2.49,20.5,12.5
OBSL1 (GeneID 23363),1,-0.11,2.19,5.24
OBSL1 (GeneID 23363),2,-0.608,-1.31,3.37
OBSL1 (GeneID 23363),3,-0.746,-2.28,2.5
HEMK1 (GeneID 51409),1,-0.641,-1.54,5.25
HEMK1 (GeneID 51409),2,0.147,4,5.72
HEMK1 (GeneID 51409),3,-1.17,-5.25,1.79
ZSCAN22 (GeneID 342945),1,1.85,16,8.59
ZSCAN22 (GeneID 342945),2,2.21,18.5,9.58
ZSCAN22 (GeneID 342945),3,5.08 (active),38.7,17.1
NDN (GeneID 4692),1,2.65,21.6,14
NDN (GeneID 4692),2,0.575,7.01,8.07
NDN (GeneID 4692),3,-0.228,1.36,3.64
ABCA7 (GeneID 10347),1,-0.206,1.52,7.08
ABCA7 (GeneID 10347),2,1.37,12.6,7.93
ABCA7 (GeneID 10347),3,-0.0833,2.38,6.73
NAA30 (GeneID 122830),1,-0.973,-3.87,3.87
NAA30 (GeneID 122830),2,-1.1,-4.8,2.91
NAA30 (GeneID 122830),3,-0.733,-2.19,3.65
TLN2-AS2 (GeneID 197003),1,-0.0791,2.41,4.47
TLN2-AS2 (GeneID 197003),2,1.68,14.8,7.93
TLN2-AS2 (GeneID 197003),3,-0.23,1.35,3.19
NCOR1P2 (GeneID 729490),1,-0.216,1.45,3.7
NCOR1P2 (GeneID 729490),2,0.982,9.88,7.98
NCOR1P2 (GeneID 729490),3,-0.902,-3.38,2.08
ZNF22 (GeneID 7570),1,0.228,4.57,5.05
ZNF22 (GeneID 7570),2,0.675,7.72,9.42
ZNF22 (GeneID 7570),3,1.19,11.4,8.1
POU4F1 (GeneID 5457),1,-0.991,-4,1.87
POU4F1 (GeneID 5457),2,-0.29,0.925,5.28
POU4F1 (GeneID 5457),3,0.87,9.09,6.41
GPHN (GeneID 10243),1,-0.566,-1.01,4.87
GPHN (GeneID 10243),2,1.09,10.6,8.38
GPHN (GeneID 10243),3,-0.825,-2.84,2.37
KRTAP5-4 (GeneID 387267),1,1.06,10.4,7.93
KRTAP5-4 (GeneID 387267),2,0.136,3.92,6.32
KRTAP5-4 (GeneID 387267),3,-0.915,-3.47,2.58
GNG3 (GeneID 2785),1,-1.23,-5.66,3.18
GNG3 (GeneID 2785),2,-0.236,1.31,4.12
GNG3 (GeneID 2785),3,1.69,14.9,10.9
RPS15AP25 (GeneID 728774),1,4.05,31.4,16
RPS15AP25 (GeneID 728774),2,0.298,5.06,4.95
RPS15AP25 (GeneID 728774),3,-0.568,-1.03,2.71
RRM1 (GeneID 6240),1,0.972,9.81,8.42
RRM1 (GeneID 6240),2,1.92,16.5,9.62
RRM1 (GeneID 6240),3,1.91,16.4,10.6
DACH2 (GeneID 117154),1,-0.462,-0.28,2.99
DACH2 (GeneID 117154),2,-0.101,2.26,3.95
DACH2 (GeneID 117154),3,1.18,11.2,7.47
SOWAHC (GeneID 65124),1,-1.53,-7.79,0.642
SOWAHC (GeneID 65124),2,-0.534,-0.792,4.24
SOWAHC (GeneID 65124),3,0.16,4.09,6.44
NPPB (GeneID 4879),1,-0.884,-3.25,2.09
NPPB (GeneID 4879),2,5.84 (active),44,22.6
NPPB (GeneID 4879),3,-0.583,-1.14,4.77
YJEFN3 (GeneID 374887),1,-0.201,1.55,4.52
YJEFN3 (GeneID 374887),2,2.45,20.2,12.1
YJEFN3 (GeneID 374887),3,0.224,4.54,6.02
UBE4B (GeneID 10277),1,0.733,8.12,9.23
UBE4B (GeneID 10277),2,0.724,8.06,6.45
UBE4B (GeneID 10277),3,0.678,7.74,9.53
PPP1R21 (GeneID 129285),1,0.27,4.86,6.01
PPP1R21 (GeneID 129285),2,0.382,5.66,4.9
PPP1R21 (GeneID 129285),3,-0.0434,2.66,3.54
RPL36AP46 (GeneID 729621),1,1.64,14.5,8.47
RPL36AP46 (GeneID 729621),2,2.47,20.3,12.1
RPL36AP46 (GeneID 729621),3,-0.086,2.36,4.02

Copied from above, 5 entries:
Gene,reagent,G2 robust z-score,"G2 cells, % of GMNN control",raw share of cells in G2 (%)
GPHN (GeneID 10243),2,1.09,10.6,8.38
GPHN (GeneID 10243),3,-0.825,-2.84,2.37
KRTAP5-4 (GeneID 387267),1,1.06,10.4,7.93
KRTAP5-4 (GeneID 387267),2,0.136,3.92,6.32
KRTAP5-4 (GeneID 387267),3,-0.915,-3.47,2.58
